Substitutions are numbered along the chain they refer to. No constants are given. Whether binding was seen depends on the method and setting. Binding seen in cells or lysates may run through a third protein. Some binding calls cover weakened binding; strength is not graded here. Sequences can lack the tags named with a protein.
Assays:
Test in all cases: FRET or BRET
[1] = target: T1, CLIP-tagged mouse SIRPα V87S (mouse) (UniProt P97797)
T1 sequence (chain, CLIP-Surface 547 on the CLIP tag): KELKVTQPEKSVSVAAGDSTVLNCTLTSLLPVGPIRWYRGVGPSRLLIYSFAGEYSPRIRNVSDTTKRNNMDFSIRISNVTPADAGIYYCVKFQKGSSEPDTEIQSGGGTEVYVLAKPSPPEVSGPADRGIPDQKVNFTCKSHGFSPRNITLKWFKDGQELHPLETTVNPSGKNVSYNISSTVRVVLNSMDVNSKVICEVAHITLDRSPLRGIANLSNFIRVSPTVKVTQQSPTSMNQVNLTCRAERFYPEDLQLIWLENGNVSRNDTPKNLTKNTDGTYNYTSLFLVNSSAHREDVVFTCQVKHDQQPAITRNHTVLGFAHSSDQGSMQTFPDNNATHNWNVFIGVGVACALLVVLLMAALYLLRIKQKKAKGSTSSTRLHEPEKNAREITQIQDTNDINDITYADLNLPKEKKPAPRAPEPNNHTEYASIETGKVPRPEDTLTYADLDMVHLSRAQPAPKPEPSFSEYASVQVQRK

By UniProt entry, the sequences of proteins in these tests, tags left out. Residues count along the entry.
UniProt P11835, residues 24-771: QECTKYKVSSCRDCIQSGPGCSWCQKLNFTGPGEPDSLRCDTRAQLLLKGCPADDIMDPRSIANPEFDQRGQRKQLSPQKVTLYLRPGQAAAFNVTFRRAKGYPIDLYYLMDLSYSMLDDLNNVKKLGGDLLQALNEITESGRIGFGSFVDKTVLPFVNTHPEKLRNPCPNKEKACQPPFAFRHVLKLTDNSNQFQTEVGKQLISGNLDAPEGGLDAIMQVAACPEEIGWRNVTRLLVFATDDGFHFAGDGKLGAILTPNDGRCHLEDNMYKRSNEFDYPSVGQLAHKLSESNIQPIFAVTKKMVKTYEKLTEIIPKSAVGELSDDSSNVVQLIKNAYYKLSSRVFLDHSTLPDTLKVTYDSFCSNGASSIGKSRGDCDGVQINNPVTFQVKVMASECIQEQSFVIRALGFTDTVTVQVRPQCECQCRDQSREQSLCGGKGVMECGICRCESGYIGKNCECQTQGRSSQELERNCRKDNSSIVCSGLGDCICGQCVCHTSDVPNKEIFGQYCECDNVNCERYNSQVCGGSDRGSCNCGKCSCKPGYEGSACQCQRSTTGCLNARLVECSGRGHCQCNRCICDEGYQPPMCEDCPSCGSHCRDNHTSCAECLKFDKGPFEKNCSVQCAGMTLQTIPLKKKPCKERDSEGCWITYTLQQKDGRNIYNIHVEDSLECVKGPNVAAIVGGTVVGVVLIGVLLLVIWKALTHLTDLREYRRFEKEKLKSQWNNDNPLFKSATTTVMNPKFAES

[2] = target: T2, CLIP-tagged mouse SIRPα A83T (mouse) (UniProt P97797)
T2 sequence (chain, CLIP-Surface 547 on the CLIP tag): T1 sequence (chain, CLIP-Surface 547 on the CLIP tag) with A52T, S56V

[3] = target: T3, CLIP-tagged mouse SIRPα A116S, I118T (mouse) (UniProt P97797)
T3 sequence (chain, CLIP-Surface 547 on the CLIP tag): T1 sequence (chain, CLIP-Surface 547 on the CLIP tag) with S56V, A85S, I87T

[4] = target: T4, CLIP-tagged mouse SIRPα Y86H (mouse) (UniProt P97797)
T4 sequence (chain, CLIP-Surface 547 on the CLIP tag): T1 sequence (chain, CLIP-Surface 547 on the CLIP tag) with Y55H, S56V

Measured: binding

SNAP-tagged mouse CD18 (acceptor-labeled CD18) (from UniProt P11835 24-771) (receptor)
binds: all assays above

Reference: article doi:10.1101/2025.09.10.675342
